# According to paper PMC10731644, “Toward ^68Ga and ^64Cu Positron Emission Tomography Probes: Is H2dedpa-N,N′-pram the Missing Link for dedpa Conjugation?” (Inorganic Chemistry, 2023):
# Experiments:
# [1] = 64Cu radiolabeling (radio-TLC); details: 0.5 M NaOAc buffer, RT, n = 1
# [2] = 68Ga radiolabeling (radio-TLC); details: 2 M NaOAc buffer, RT, n = 1
# [3] = cited from earlier work
compound,measurement,setting,value
"N,N′-Bis(3-aminopropyl)-N,N′-bis(6-carboxypyridin-2-yl)-1,2-diaminoethane [H2L^1]","RCC (%), [64Cu]CuCl2","[1]; pH 4, 1 × 10^-4 M ligand",100%
same,"RCC (%), [64Cu]CuCl2","[1]; pH 5, 1 × 10^-4 M ligand",100%
same,"RCC (%), [64Cu]CuCl2","[1]; pH 7, 1 × 10^-4 M ligand",100%
same,"RCC (%), [68Ga]GaCl3","[2]; pH 4, 1 × 10^-4 M ligand",100%
same,"RCC (%), [68Ga]GaCl3","[2]; pH 6, 1 × 10^-4 M ligand",100%
same,"RCC (%), [68Ga]GaCl3","[2]; pH 7.4, 1 × 10^-4 M ligand",100%
O=C(O)c1cccc(CN(CCN(Cc2ccc([N+](=O)[O-])cc2)Cc2cccc(C(=O)O)n2)Cc2ccc([N+](=O)[O-])cc2)n1 [H2dp-N-NO2],reaction concentration up to which [^68Ga]Ga^3+ is quantitatively incorporated,[3],10^–6 M
NCCCc1cc(CNCCNCc2cc(CCCN)cc(C(=O)O)n2)nc(C(=O)O)c1 [H2dedpa-propylpyr-NH2],reaction concentration up to which labeled by [^67/68Ga]Ga^3+,[3],10^–5 M
O=C(O)c1cccc(CNC[C@H](Cc2ccc([N+](=O)[O-])cc2)NCc2cccc(C(=O)O)n2)n1 [H2dp-bb-NO2],reaction concentration up to which [^68Ga]Ga^3+ is quantitatively incorporated,[3],10^–6 M
